Values quoted from earlier work in patent publication US20050272682A1, “SiRNA targeting PI3K signal transduction pathway and siRNA-based therapy” (priority 2004, published 2005).
For at least one compound, name, drawing or mass did not settle the structure.

Conditions: chronic administrations; Boehle, et al., 2002; cited from earlier work

In the case of `COC[C@H]1OC(=O)c2coc3c2[C@@]1(C)C1=C(C3=O)[C@@H]2CCC(=O)[C@@]2(C)C[C@H]1OC(C)=O` [wortmannin, Wortmannin], the toxicity is listed as “toxic”.
